PubChem BioAssay AID602196 – INSERM | 2012
Shown is a random part of about 23,000 reagents tested. 455 of them (2%) were called active. 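Active includes both protection and sensitisation; some change values fall well beyond the stated -50 to +50 range.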 Unmarked entries are inactive. Not all columns of the deposit are shown. The record does not give: the amount of reagent.

- Screen: 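Genes whose knock-down alters cisplatin killing of lung cancer cells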
- Cells: human A549 lung cancer cells
- Knock-down reagent: siRNA pair against human genes
- Timing: 48 h transfection before cisplatin; time from cisplatin to read-out not stated
- Challenge: cisplatin at a dose killing half of control-siRNA cells; exact dose and duration not given
- Measurement: 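Shift in cisplatin death relative to control siRNA, from -50 (all cells die) to +50 (no cells die); siRNAs harmful on their own scored 0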
- Scale: two-siRNA summed score (-2 to +2): higher = both siRNAs protect from cisplatin killing; -2 means both sensitise
- Rule for the call: 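Each siRNA scores 0 if harmful alone by LDH or WST-1, otherwise +1 if it reduces and -1 if it increases cisplatin killing; a gene is active when both siRNAs agree (sum +2 or -2)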
- Meaning of the calls: active = both siRNAs shift cisplatin killing the same way; inactive = no consistent shift, or siRNA harmful alone

Knock-down of EEFSEC [SID131506148] came out at: two-siRNA summed score (-2 to +2) = 0.
ACTC1 [SID131507271] scored two-siRNA summed score (-2 to +2) = 0.
Silencing of LOC391570 [SID131512460] gave: two-siRNA summed score (-2 to +2) = 0.
POP4 [SID131520596] showed two-siRNA summed score (-2 to +2) = 1.
For MARCHF11-DT [SID131510977] the deposit lists two-siRNA summed score (-2 to +2) = 0.
After knock-down of COL23A1 [SID131517479] the results were two-siRNA summed score (-2 to +2) = 0.
Against MBTPS2 [SID131501480], the entry reads two-siRNA summed score (-2 to +2) = -1.
OR10H3 [SID131501035] scored two-siRNA summed score (-2 to +2) = -1.
Depletion of HOOK3 [SID131506960] gave: two-siRNA summed score (-2 to +2) = 0.
With knock-down of LOC440027 [SID131517982], the record shows two-siRNA summed score (-2 to +2) = 0.
For GRIA3 [SID131500308] the deposit lists two-siRNA summed score (-2 to +2) = -2 (active).
Depletion of RHCE [SID131509418] gave: two-siRNA summed score (-2 to +2) = 0.
Silencing of VAV2 [SID131518250] gave: two-siRNA summed score (-2 to +2) = 0.
For ABITRAM [SID131516184], the entry reads two-siRNA summed score (-2 to +2) = 0.
Silencing of ISCA1 [SID131514415] resulted in: two-siRNA summed score (-2 to +2) = 0.
With knock-down of DHODH [SID131502869], the screen gave two-siRNA summed score (-2 to +2) = 0.
Knock-down of OR2AK2 [SID131503800] came out at: two-siRNA summed score (-2 to +2) = 0.
Depletion of ETNK2 [SID131508381] came out at: two-siRNA summed score (-2 to +2) = 0.
Against PREX2 [SID131501799], the entry reads two-siRNA summed score (-2 to +2) = -1.
Silencing of SCO2 [SID131515368] came out at: two-siRNA summed score (-2 to +2) = 0.
Silencing of ANKRD13C [SID131507641] came out at: two-siRNA summed score (-2 to +2) = 0.
